These are yes or no findings as the source states them, for the method shown. A result given as binding can be weak or reduced; the word gives no strength.
What was measured:
[1] = biological target: HsFA3^E173R in pGBKT7 (BD) (Arabidopsis thaliana) (UniProt Q8GYY1); experiment: two-hybrid; CRY1 as prey in pGADT7 (AD), HsF as bait in pGBKT7 (BD), co-transformed into yeast Y187; liquid beta-galactosidase assay with CPRG, Miller units; not detected (ND) if OD578 <0.01 after 3 h of color development
[2] = biological target: HsFA3 E188R in pGBKT7 (BD) (Arabidopsis thaliana) (UniProt Q8GYY1); experiment: as above

Protein sequences, listed by entry. Tags and fused reporters are not part of them. Lines headed by an entry give the natural chain unless they say otherwise; changes in a name come on top. Chains listed by the source or under a name are the forms on record and can include a tag or linker. Residues count along the entry.
UniProt Q8GYY1: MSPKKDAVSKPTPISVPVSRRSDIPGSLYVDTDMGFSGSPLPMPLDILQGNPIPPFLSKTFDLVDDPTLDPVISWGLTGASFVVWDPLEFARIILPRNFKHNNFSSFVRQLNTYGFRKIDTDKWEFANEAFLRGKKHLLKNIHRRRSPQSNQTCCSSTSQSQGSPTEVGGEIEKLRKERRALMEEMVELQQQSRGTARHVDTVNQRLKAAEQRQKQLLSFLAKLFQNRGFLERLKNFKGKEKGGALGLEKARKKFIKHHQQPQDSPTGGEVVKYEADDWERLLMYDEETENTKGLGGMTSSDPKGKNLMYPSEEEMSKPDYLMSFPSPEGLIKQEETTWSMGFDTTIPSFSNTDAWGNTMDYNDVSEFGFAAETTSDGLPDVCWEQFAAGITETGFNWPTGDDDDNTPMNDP
CRY1^(PHR WT) in pGADT7 (AD) (Q43125, residues 1-508): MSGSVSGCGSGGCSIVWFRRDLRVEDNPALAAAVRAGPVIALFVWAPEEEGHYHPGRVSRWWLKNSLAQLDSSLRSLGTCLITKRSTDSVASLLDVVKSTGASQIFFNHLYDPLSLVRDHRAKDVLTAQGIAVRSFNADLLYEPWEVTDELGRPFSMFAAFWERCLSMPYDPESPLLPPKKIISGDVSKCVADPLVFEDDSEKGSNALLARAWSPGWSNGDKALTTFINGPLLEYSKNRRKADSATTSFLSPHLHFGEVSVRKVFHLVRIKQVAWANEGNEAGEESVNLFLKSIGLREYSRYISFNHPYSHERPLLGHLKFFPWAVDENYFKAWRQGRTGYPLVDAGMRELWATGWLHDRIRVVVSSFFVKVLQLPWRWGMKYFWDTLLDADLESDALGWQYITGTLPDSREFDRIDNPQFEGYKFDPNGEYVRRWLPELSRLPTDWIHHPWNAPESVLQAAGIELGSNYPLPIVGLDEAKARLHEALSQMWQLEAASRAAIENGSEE
CRY1^(PHR R211E R435E) in pGADT7 (AD) (Q43125, form named): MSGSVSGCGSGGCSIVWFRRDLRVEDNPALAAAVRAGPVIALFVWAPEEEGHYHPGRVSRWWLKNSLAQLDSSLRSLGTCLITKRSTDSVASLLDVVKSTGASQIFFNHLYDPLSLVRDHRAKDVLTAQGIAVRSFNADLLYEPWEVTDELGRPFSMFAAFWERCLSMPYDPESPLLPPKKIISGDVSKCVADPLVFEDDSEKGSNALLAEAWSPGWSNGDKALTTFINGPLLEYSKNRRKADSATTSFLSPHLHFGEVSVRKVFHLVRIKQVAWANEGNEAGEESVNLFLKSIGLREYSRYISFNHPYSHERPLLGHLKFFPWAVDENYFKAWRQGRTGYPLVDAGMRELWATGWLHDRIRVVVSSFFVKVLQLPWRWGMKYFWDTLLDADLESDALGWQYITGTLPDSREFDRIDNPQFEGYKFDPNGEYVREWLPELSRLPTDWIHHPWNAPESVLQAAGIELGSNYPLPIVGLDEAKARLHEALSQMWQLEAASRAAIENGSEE

Substance | binding [1] | binding [2]
CRY1^(PHR WT) in pGADT7 (AD) (from UniProt Q43125 1-508) (domain or fragment) | binds | –
CRY1^(PHR R211E R435E) in pGADT7 (AD) (from UniProt Q43125 1-508) (domain or fragment) | – | binds

— publication PMC12753876
